Laboratory results: PubChem BioAssay AID1347076 (National Center for Advancing Translational Sciences (NCATS), 2019)
The campaign covered roughly 400,000 compounds. About 13,000 (3.2%) were called active. The inconclusive results got no clear call from the source; some entries with a clear call stand among them for comparison. The call rests on the fitted dose curve; in most records, active means well fitted cell-killing curve with a large enough effect; inconclusive means small, poorly fitted or top-dose-only effect, or effect the other way; inactive means flat fitted curve, though single readings scatter. A potency beside an inconclusive call is a rough fit, not a confirmed value.

Assay: qHTS assay for MDR1-selective chemotherapeutics: Primary screen using the drug-selected MDR subline cells KB-V1; further: nearly all actives have a fitted effect of over 60% in size
Conditions: KB-V1 MDR cells viability, CellTiter-Glo, 72 h; series mostly up to 46.1 µM
In short: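 Following 72 h at 37 degrees C with compound, KB-V1 cell viability was read by CellTiter-Glo luminescence, medium being phenol-red-free DMEM plus 10% FBS; concentration-response parameters came from normalized, curve-fitted qHTS data.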
Potency means the concentration at half of the fitted maximal effect.

Row | Compound | Potency
1 | COc1ccc(NS(=O)(=O)c2cccs2)cc1S(=O)(=O)N1CCOCC1 | inactive
2 | CCOC(=O)c1c(OCC)[nH]c2c1cc(O)c1ccccc12 | inconclusive: 29.1 µM [cytotoxic, single point]
3 | CCOc1ccccc1NC(=O)c1cc2c(Cl)nc3ccccc3c2s1 | inconclusive: 25.9 µM [rising, single point]
4 | COc1ccccc1OCC(=O)NNC(=O)C(=O)N1CCCC1 | inconclusive: 18.4 µM [rising, partial curve, poor fit]
5 | COc1cccc(/C=N/NC(=O)c2cc3c(OC)c(OC)ccc3[nH]2)c1OC | inactive
6 | COc1ccc(CCNC(=O)c2cc3c(-c4ccccc4F)nn(C)c3s2)c(OC)c1 | inconclusive: 29.1 µM [cytotoxic, single point]
7 | O=C(NC(=S)NCCCN1CCOCC1)c1ccc(Br)cc1 | inconclusive: 16.4 µM [cytotoxic, partial curve, poor fit]
8 | Cc1ccc(C)c(OCCC(=O)N2CCN(S(=O)(=O)c3cc(C)ccc3C)CC2)c1 | inconclusive: 18.4 µM [cytotoxic, partial curve, poor fit]
9 | CCOC(=O)C1CCCN(S(=O)(=O)c2ccc3c(c2)CCCN3C(C)=O)C1 (stereo not drawn) | inactive
10 | Cc1cc(C)cc(C(=O)NC(=S)Nc2ccc(-c3cc4ccccc4oc3=O)cc2)c1 | inconclusive: 9.2 µM [cytotoxic, partial curve, poor fit]
11 | CCOC(=O)CCCc1ccc(/C(C)=N/NC(=S)NC)cc1 | inactive
12 | CCC(CC)c1nnc(NC(=O)CCc2ccc(OC)cc2)s1 | inconclusive: 20.6 µM [cytotoxic, partial curve]
13 | O=C(CCN1C(=O)/C(=C/c2cccs2)SC1=S)N1CCCCC1 | inconclusive: 7.31 µM [cytotoxic, partial curve, poor fit]
14 | COc1ccc(NC(=O)c2cc3c(s2)-c2c(C)cccc2OC3)c(OC)c1 | inconclusive: 0.461 µM [rising, full curve, poor fit]
15 | COc1ccccc1NS(=O)(=O)c1cccc(NC(=O)c2sc3ccccc3c2Cl)c1 | inconclusive: 2.31 µM [cytotoxic, full curve]
16 | O=C(C(O)c1ccccc1)N1CCN(S(=O)(=O)c2ccc(C(F)(F)F)cc2)CC1 (stereo not drawn) | inconclusive: 9.2 µM [cytotoxic, partial curve]
17 | Cc1ccccc1OCC(=O)N/N=C/c1cccc2cccnc12 | inconclusive: 20.6 µM [cytotoxic, single point]
18 | Cc1cc(C(=O)N/N=C/c2cccnc2)cs1 | inconclusive: 16.4 µM [rising, single point]

Shown in markdown: part of the list above

| Row | Compound | Potency |
| --- | --- | --- |
| 1 | COc1ccc(NS(=O)(=O)c2cccs2)cc1S(=O)(=O)N1CCOCC1 | inactive |
| 2 | CCOC(=O)c1c(OCC)[nH]c2c1cc(O)c1ccccc12 | inconclusive: 29.1 µM [cytotoxic, single point] |
